Measured values from PubChem BioAssay AID2685 (National Center for Advancing Translational Sciences (NCATS), 2010).
The list shows a part of the results. These are further read-outs of the screen, such as a control signal, another cell line or another target. No call is given for them. The list favours compounds with an active or inconclusive main result. Words in brackets tell the shape of the fitted curve; partial curves, single points and poor fits give uncertain potencies.

Test: qHTS Assay for Lipid Storage Modulators in Drosophila S3 Cells;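 for cell number change: cells counted by Cell Tracker Red CMTPX staining in the red channel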
Conditions: BODIPY lipid droplet fluorescence, 18-24 h; for cell number change: measured here: cell count max response, cells fed with added oleic acid
Outline: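 Drosophila S3 cells loaded with oleic acid (400 uM, as added) and compounds at several concentrations; lipid droplets imaged by 488-nm laser-scanning cytometry, 500–530 nm intensity and object ratio to cell channel. Percent activity normalized to 20 uM Triacsin C.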

[1] = measured here: lipid fluorescence (Fed channel) AC50, cells fed with added oleic acid
[2] = measured here: cell number channel AC50, cells fed with added oleic acid

| SMILES | cell number change | AC50 [1] | AC50 [2] |
| --- | --- | --- | --- |
| O=C(COc1ccc2c(C(F)(F)F)cc(=O)oc2c1)NCc1cccs1 | 1.17% | 2.31 µM [rising, single point] |  |
| COc1ccc(C(=O)OCC2CC(c3ccccc3)=NO2)cc1OC (stereo unspecified) | -38.7% |  |  |
| CC1(c2ccc(Cl)cc2Cl)OCC(Cn2ccnc2)O1 (stereo unspecified) | -48% | 2.59 µM [rising, partial curve, poor fit] |  |
| CC(=O)c1c(C)nc(-c2ccc(OCC(=O)Nc3cccc(C)c3C)cc2)n1O | -0.63% | 32.6 µM [falling, single point] |  |
| CCN1CCN(Cc2nc3c(c(=O)n(C)c(=O)n3C)n2Cc2cccc3ccccc23)CC1 | -43.7% | 1.46 µM [falling, partial curve, poor fit] | 0.146 µM [falling, full curve, poor fit] |
| O=C(NC(=S)Nc1nc(-c2ccccc2)cs1)c1cccnc1 |  | 2.59 µM [rising, single point] | 3.26 µM [rising, single point] |
| COc1ccc(-c2cc(C(F)(F)F)nc(SCC(=O)Nc3sc4c(c3C#N)CCC4)n2)cc1 | 27.3% |  |  |
| COc1ccccc1NC(=S)N1CCN(C/C=C/c2ccccc2)CC1 | -27.9% |  |  |
| COc1ccc(-n2c(=S)[nH]c3cc(C(=O)N4CCN(c5ccccc5)CC4)ccc3c2=O)c(OC)c1 | 5.13% |  |  |
| CC(=O)Nc1ccc(S(=O)(=O)NC2CCSc3ccccc32)cc1 (stereo unspecified) | 26.1% |  |  |
| COC(=O)c1cccc(Oc2nc3c(c(=O)n(C)c(=O)n3C)n2C(C)C)c1 | 21.1% |  |  |
| Cc1ccc(C(=O)NCCc2ccccc2)cc1 | 11.1% | 0.184 µM [rising, full curve, poor fit] |  |
| CCOC(=O)c1ccccc1-c1csc(N)n1 | -4.31% |  |  |
| C=CCn1c(N2CCCC2)nc2c1c(=O)n(C)c(=O)n2C | -36.5% | 2.91 µM [rising, partial curve, poor fit] | 13 µM [falling, single point] |
| CN(CC(=O)NC(=O)NCc1ccccc1)Cc1cccc(Cl)c1Cl | 11.1% |  |  |
| CCOC(=O)N1CCC(=NNC(=O)NC2CCCCC2)CC1 | -40.7% | 3.16 µM [falling, full curve, poor fit] |  |
| C/C(=N\Nc1ccccn1)c1ccc(OC(F)F)cc1 | -30.4% |  |  |
| O=C(O)CNS(=O)(=O)c1ccc(Br)s1 | 3.69% |  |  |
| COc1cc(C(=O)NCCOc2ccccc2C)c(Br)c(OC)c1OC | 4.44% | 14.6 µM [rising, single point] |  |
| CC1CCCCN1C(=O)COc1ccc(NC(=O)c2ccco2)cc1 (stereo unspecified) | 15.5% | 11.6 µM [rising, partial curve] |  |
| Oc1ccc(Cl)cc1-c1cc(C(F)(F)C(F)F)nc(-c2ccccc2)n1 | -21.6% |  |  |

| SMILES | cell number change | AC50 [1] | AC50 [2] |
| --- | --- | --- | --- |
| CCOC(=O)C1C(=O)NC(N2CCCCC2)=NC1C(C)C (stereo unspecified) | -13.1% | 6.51 µM [falling, single point] | 6.51 µM [falling, single point] |
| CCC(C)[C@H](NC(=O)[C@H](Cc1ccccc1)n1c(=O)[nH]c2ccccc2c1=O)C(=O)N1CCC[C@@H]1C(=O)O (stereo partly specified) |  | 29.1 µM [rising, single point] |  |
| O=C(C(Cc1ccccc1)n1cccc1)N1CCN(c2ncccn2)CC1 (stereo unspecified) | 74.7% |  | 16.4 µM [rising, partial curve] |
| Cc1ccccc1NC(=S)c1nc2ccccc2[nH]1 |  | 0.651 µM [falling, single point] |  |
| CCOC(=O)NN=C1CCC(c2ccccc2)CC1 (stereo unspecified) |  | 0.291 µM [rising, full curve] |  |
| O=C(c1ccco1)N1N=C(c2ccc(Cl)cc2)CC1c1ccco1 (stereo unspecified) | 2.29% |  |  |
| Cc1ccc2c(c1)C(=O)C(=O)N2CC1COc2ccccc2O1 (stereo unspecified) | -31.9% | 0.517 µM [rising, partial curve] |  |
| Cc1cc(C)n(C/C=C/Cn2nc(C)cc2C)n1 | 7.44% | 0.58 µM [rising, single point] |  |
| COc1ccc(C(=O)C[N+]2(C)CCOCC2)cc1 | -32.3% | 2.31 µM [falling, full curve, poor fit] | 0.058 µM [falling, full curve, poor fit] |
| COc1cc(C)ccc1S(=O)(=O)N1CCN(C23CC4CC(CC(C4)C2)C3)CC1 | -31% | 20.6 µM [falling, partial curve] | 25.9 µM [falling, single point] |
| COc1ccc(Cl)cc1NC(=O)c1cc(-c2ccco2)on1 | 65.1% |  | 23.1 µM [rising, partial curve, poor fit] |
| CN(CC(=O)NCc1ccco1)S(=O)(=O)c1ccc(F)cc1 |  | 29.1 µM [rising, single point] |  |
| COCCCN1C(=O)CC(C(=O)OC)=C1C | -37.1% | 4.11 µM [falling, partial curve, poor fit] | 14.6 µM [falling, partial curve, poor fit] |
| COc1cc(NC(=O)Cc2ccccc2)ccc1NC(=O)c1ccco1 | -3.95% | 3.66 µM [rising, single point] |  |
| Cc1ccc(C)c(CSc2nnc(C)c(=O)n2N)c1 | 20.1% | 32.6 µM [rising, single point] | 0.082 µM [falling, full curve, poor fit] |
| CC1(C)CC(=O)C(C=NCCN2CCNC2=O)=C(O)C1 | -15.9% | 3.66 µM [falling, single point] |  |
| Cc1ccc(NC(=O)CN(C)S(=O)(=O)c2ccc(Br)s2)cc1F | 3.05% | 16.4 µM [rising, single point] |  |
| COC1=Cc2c(ccc3ccc(=O)oc23)OC1(C)C | -38.1% | 0.517 µM [falling, full curve] | 29.1 µM [falling, single point] |
| C=CCn1c(NC)cc(=O)n(C)c1=O |  | 25.9 µM [rising, single point] |  |
| Cc1cc(C)cc(N(CC(=O)NC2CCCC2)C(=O)CNC(=O)c2ccco2)c1 | -23.8% |  |  |
| CCOc1ccc(NC(=O)C(CC(=O)O)Cc2ccc(C)cc2)cc1 (stereo unspecified) | 7.37% |  |  |

Part of the list above in order of formula weight, low to high.

| SMILES | cell number change | AC50 [1] | AC50 [2] |
| --- | --- | --- | --- |
| C=CCn1c(NC)cc(=O)n(C)c1=O |  | 25.9 µM [rising, single point] |  |
| Cc1cc(C)n(C/C=C/Cn2nc(C)cc2C)n1 | 7.44% | 0.58 µM [rising, single point] |  |
| COc1ccc(C(=O)C[N+]2(C)CCOCC2)cc1 | -32.3% | 2.31 µM [falling, full curve, poor fit] | 0.058 µM [falling, full curve, poor fit] |
| CCOC(=O)NN=C1CCC(c2ccccc2)CC1 (stereo unspecified) |  | 0.291 µM [rising, full curve] |  |
| Cc1ccccc1NC(=S)c1nc2ccccc2[nH]1 |  | 0.651 µM [falling, single point] |  |
| Cc1ccc(C)c(CSc2nnc(C)c(=O)n2N)c1 | 20.1% | 32.6 µM [rising, single point] | 0.082 µM [falling, full curve, poor fit] |
| CCOC(=O)C1C(=O)NC(N2CCCCC2)=NC1C(C)C (stereo unspecified) | -13.1% | 6.51 µM [falling, single point] | 6.51 µM [falling, single point] |
| Cc1ccc2c(c1)C(=O)C(=O)N2CC1COc2ccccc2O1 (stereo unspecified) | -31.9% | 0.517 µM [rising, partial curve] |  |
| CN(CC(=O)NCc1ccco1)S(=O)(=O)c1ccc(F)cc1 |  | 29.1 µM [rising, single point] |  |
| O=C(c1ccco1)N1N=C(c2ccc(Cl)cc2)CC1c1ccco1 (stereo unspecified) | 2.29% |  |  |
| COc1cc(NC(=O)Cc2ccccc2)ccc1NC(=O)c1ccco1 | -3.95% | 3.66 µM [rising, single point] |  |
| O=C(C(Cc1ccccc1)n1cccc1)N1CCN(c2ncccn2)CC1 (stereo unspecified) | 74.7% |  | 16.4 µM [rising, partial curve] |
| Cc1cc(C)cc(N(CC(=O)NC2CCCC2)C(=O)CNC(=O)c2ccco2)c1 | -23.8% |  |  |
| COc1cc(C)ccc1S(=O)(=O)N1CCN(C23CC4CC(CC(C4)C2)C3)CC1 | -31% | 20.6 µM [falling, partial curve] | 25.9 µM [falling, single point] |
| Cc1ccc(NC(=O)CN(C)S(=O)(=O)c2ccc(Br)s2)cc1F | 3.05% | 16.4 µM [rising, single point] |  |
| CCC(C)[C@H](NC(=O)[C@H](Cc1ccccc1)n1c(=O)[nH]c2ccccc2c1=O)C(=O)N1CCC[C@@H]1C(=O)O (stereo partly specified) |  | 29.1 µM [rising, single point] |  |

Next part:

| SMILES | cell number change | AC50 [1] | AC50 [2] |
| --- | --- | --- | --- |
| COc1ccc(P(=O)(COc2ccc([N+](=O)[O-])cc2)c2ccc(OC)cc2)cc1 | 42.5% | 29.1 µM [rising, partial curve] | 29.1 µM [rising, single point] |
| CCOC(=O)c1sc(NC(=O)CSc2n[nH]c(-c3ccncc3)n2)c(C#N)c1C | 15.9% | 29.1 µM [rising, single point] | 0.731 µM [rising, full curve] |
| COc1ccccc1NC(=O)/C(=C\c1cccs1)NC(=O)c1ccco1 | -52.9% | 6.51 µM [falling, partial curve] | 8.2 µM [falling, partial curve, poor fit] |
| COc1ccc(NC(=O)CSc2nc3c(sc4ccccc43)c(=O)n2CCCN2CCCC2)cc1 | 49.8% | 4.61 µM [rising, single point] | 16.4 µM [rising, single point] |
| CCc1cccc(C)c1NC(=O)CN(C)C1=NS(=O)(=O)c2ccccc21 | -1.3% | 0.461 µM [rising, single point] |  |
| CCCC(c1nnnn1C(C)(C)CC)N(CCCO)Cc1cc2cc(C)cc(C)c2[nH]c1=O (stereo unspecified) | 5.38% |  | 0.146 µM [rising, full curve, poor fit] |
| O=C(NC1CCCCC1)c1cc(Cl)ccc1[N+](=O)[O-] | -32.5% | 0.0411 µM [falling, full curve, poor fit] | 29.1 µM [falling, single point] |
| O=C(NC1CC1)C1CCN(C2CCN(C(=O)c3ccc(C(F)(F)F)cc3)CC2)CC1 |  | 0.58 µM [falling, single point] |  |
| Nc1cc(-c2ccc(Cl)cc2)nn1S(=O)(=O)c1cccc2nsnc12 | 11.1% | 0.0146 µM [rising, full curve, poor fit] |  |
| O=C(CNCCC1=CCCCC1)Nc1ccccc1N1CCCCC1 | -233% | 29.1 µM [falling, single point] | 29.1 µM [falling, single point] |
| COc1ccc(-n2cc(CNCCc3cscn3)c(-c3ccccc3Cl)n2)cc1 |  | 0.461 µM [falling, single point] |  |
| C=CCOc1ccc(/C=N/Nc2ccccn2)cc1OC | 1.1% |  | 6.51 µM [rising, single point] |
| CC(C)Cc1nc2ccccc2[nH]1 | 14.5% |  |  |
| C=CCN1C(=O)CN=C1Nc1ccc(OC)cc1OC | -5.42% |  |  |
| CCC(C)(C)NC(=O)C(c1ccccc1Cl)N(Cc1cccnc1)C(=O)CCC(=O)Nc1cc(C)on1 (stereo unspecified) | 11.2% | 0.461 µM [rising, partial curve] |  |
| Cc1c(N/C=C(\Cl)C(=O)C(F)(F)F)c(=O)n(-c2ccccc2)n1C | 10.5% |  |  |
| O=C(CN1C(=O)C2CC=CCC2C1=O)NC1CCCCC1 (stereo unspecified) | 5.77% |  |  |
| COc1ccc(CNC(=O)COC(=O)CNC(=O)c2sc3ccccc3c2Cl)cc1OC | 4.67% | 6.51 µM [rising, single point] | 4.61 µM [rising, single point] |
| COc1ccccc1NC(=S)NC(=O)c1c(-c2ccccc2Cl)noc1C | 21.4% | 2.06 µM [rising, full curve, poor fit] |  |
| O=C(N/C=C/c1ccc(Cl)cc1)NCc1ccc(Cl)cc1 | -19.3% | 1.64 µM [rising, partial curve, poor fit] |  |
| Cc1cccc(N2CCN(C(=O)Cc3ccc(Br)cc3)CC2)c1C | 46% |  | 25.9 µM [rising, single point] |
